From patent publication US10688099B2, “Methods for modulating the amount of RNA transcripts” (PTC Therapeutics, Inc., priority 2013, dated 2020)
This continues a long series; more values of the same kind are listed elsewhere.

System: RNA isoforms in PNN 1-46 SMA type I patient-derived fibroblasts
Experiment: RNA Abundance Modulation (RNA isoform abundance, iFPM, HiSeq RNA sequencing)
Assay type: cell-based, human
Settings: 3 μM
Experimental: Cells from a cell line of interest are cultured in conditions sufficient to yield the number of cells capable of generating enough RNA for subsequent sequencing steps. Cells from the tested cell line are contacted with a compound described herein.
To culture said cells, they are seeded, at appropriate concentrations in a volume of media in a cell culture container and incubated for 4, 5, 6, 7, 8, 9, 10, or more hours. A concentrated solution of compound in a vehicle (e.g., DMSO) is then added in sufficient volume to result in the intended final concentration of the compound, for example 100 nM, 500 nM, 1 μM, 5 μM, 10 μM, 15 μM, 20 μM, or more. The cells may also be treated with vehicle alone, as a control. A number of replicates of each concentration or control may be made (e.g., 2 replicates). The cells are then incubated at a constant temperature appropriate for cell culture of the particular cell line (e.g., 37° C.) for 6, 12, 18, 24, 48, or more hours. After incubation, the growth medium is removed and the cells are washed with the appropriate buffer (e.g., PBS). Cells are then removed from adherence to the cell culture container by treatment with a solution containing trypsin, and the trypsin subsequently quenched with the appropriate volume of buffer (e.g., DMEM-FBS). The cells are then pelleted with gentle centrifugation (e.g., ≤90×g centrifugal force) and resuspended in a buffer to lyse the cells for extraction of RNA. The cell lysates may then be frozen (e.g., at −80° C.) or, alternately, may immediately be used in a procedure to purify the RNA (e.g. by use of the RNEASY PLUS® minikit). The RNA from cell lysates is eluted in the appropriate volume of buffer (e.g., RNEASE-FREE H2O®). The resulting purified RNA may then be sequenced (e.g., using RNASeq) or analyzed using a human exon array (e.g., by GENECHIP® human exon array) to determine changes in the RNA levels in those cells treated with compound compared to those cells treated only with DMSO. The purified RNA may also be quantified by other methods known in the art.
Using the RNA data obtained from sequencing, exon array, or other methods, a statistical analysis can reveal changes in the RNA levels of compound-treated compared with control. For example, t-test p-values may be calculated for the data obtained through sequencing and exon array methods in order to compare compound-treated cells to those treated with the DMSO control. […] Analysis of the sequencing and exon array data may then also yield predictions about the cause of the aberrant amount of an RNA transcript in the cells (e.g., perturbation of RNA splicing, RNA transcription, or RNA stability). These predictions may be further confirmed by methods known in the art. For example, RT-PCR and RT-qPCR may be used to confirm the change in amount of RNA transcripts for one or more particular transcripts of interest.
Following the methods described above in Example 1, PNN 1-46 SMA type I patient-derived fibroblasts were treated with 300 nM or 3 μM Compounds 774 and 808 in 0.5% DMSO.
700,000 cells were seeded in 10 mL of medium (DMEM plus 10% FBS) in a T-75 flask. Cells were allowed to attach for at least 4 hrs, after which 50 μL of a 200× compound solution (100% DMSO) was added to each well, and the plate was incubated at 37° C. for 24 hrs.
At the end of the incubation period, the supernatant was removed and the cells where washed with PBS. TrypLE (Invitrogen) express solution was added (e.g. 1.5 mL per one T75 flask). The flasks were incubated for 3 to 5 min at 37° C. The trypsin was then quenched, e.g., by adding 10 mL DMEM-FBS.
Next, the cells were pelleted using gentle centrifugation without exceeding 90×g centrifugal force. The supernatant was removed and the cell pellet was re-suspended in 600 μL RLT buffer (the RLT buffer was supplemented with beta-mercaptoethanol according to the RNeasy protocol manual) by pipetting up and down until the pellet was completely dissolved […]

## CCc1nc(C)cn2nc(-c3cc(=O)n4cc(C5CCN(C)CC5)cc(C)c4n3)cc12 [Compound 774]
FLII NM_001256264
  L2abs (Cpd-DMSO): 7.28
  abs (Cpd-DMSO): 156 iFPM
  amp FC (x + 1): 156.56
  ave Cpd: 0 iFPM
FLII NM_001256265
  FC (x + 1): 0.0658
  L2FC (x + 1): −3.925
  L2abs (Cpd-DMSO): 3.83
  abs (Cpd-DMSO): 14 iFPM
  amp FC (x + 1): 15.19
  ave Cpd: 0 iFPM
FLNB AF353666
  FC (x + 1): 0.7328
  L2FC (x + 1): −0.448
  L2abs (Cpd-DMSO): −0.73
  abs (Cpd-DMSO): 1 iFPM
  amp FC (x + 1): 1.36
  ave Cpd: 1 iFPM
FLNB NM_001457
  FC (x + 1): 0.6887
  L2FC (x + 1): −0.538
  L2abs (Cpd-DMSO): 11.74
  abs (Cpd-DMSO): 3431 iFPM
  amp FC (x + 1): 1.45
  ave Cpd: 7590 iFPM
FLNB NM_001164317
  FC (x + 1): 0.6357
  L2FC (x + 1): −0.654
  L2abs (Cpd-DMSO): 7.96
  abs (Cpd-DMSO): 248 iFPM
  amp FC (x + 1): 1.57
  ave Cpd: 433 iFPM
FLNB NM_001164318
  FC (x + 1): 0.3591
  L2FC (x + 1): −1.478
  L2abs (Cpd-DMSO): 9.58
  abs (Cpd-DMSO): 768 iFPM
  amp FC (x + 1): 2.78
  ave Cpd: 429 iFPM
FLNB NM_001164319
  FC (x + 1): 0.8989
  L2FC (x + 1): −0.154
  L2abs (Cpd-DMSO): 8.47
  abs (Cpd-DMSO): 354 iFPM
  amp FC (x + 1): 1.11
  ave Cpd: 3149 iFPM
FNBP1 AK000975
  FC (x + 1): 0.3901
  L2FC (x + 1): −1.358
  L2abs (Cpd-DMSO): 7.40
  abs (Cpd-DMSO): 169 iFPM
  amp FC (x + 1): 2.56
  ave Cpd: 107 iFPM
FNBP1 AK001616
  FC (x + 1): 1.6171
  L2FC (x + 1): 0.693
  L2abs (Cpd-DMSO): 6.61
  abs (Cpd-DMSO): 98 iFPM
  amp FC (x + 1): 1.62
  ave Cpd: 256 iFPM
FNBP1 AK023681
  FC (x + 1): 2.6266
  L2FC (x + 1): 1.393
  L2abs (Cpd-DMSO): 3.14
  abs (Cpd-DMSO): 9 iFPM
  amp FC (x + 1): 2.63
  ave Cpd: 13 iFPM
FNBP1 BC143513
  FC (x + 1): 0.6734
  L2FC (x + 1): −0.571
  L2abs (Cpd-DMSO): 8.65
  abs (Cpd-DMSO): 401 iFPM
